Test results published in US20170183415A1.
No constants are given. Whether binding was seen depends on the method and setting. Some entries that bind do so weakly or less than the wild type.

T1: immobilized CD123 (UniProt P26951)
T1 sequence (looked up): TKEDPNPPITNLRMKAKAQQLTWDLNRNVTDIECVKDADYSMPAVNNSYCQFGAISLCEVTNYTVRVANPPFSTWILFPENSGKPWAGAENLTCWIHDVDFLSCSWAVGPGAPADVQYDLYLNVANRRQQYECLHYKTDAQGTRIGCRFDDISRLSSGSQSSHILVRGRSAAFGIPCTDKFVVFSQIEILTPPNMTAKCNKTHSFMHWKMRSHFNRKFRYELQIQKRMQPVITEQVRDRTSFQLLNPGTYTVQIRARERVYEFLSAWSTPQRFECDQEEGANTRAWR

B1: CAR4 Soluble scFv (humanized anti-CD123 scFv variant) (scFv)
scFv: EIVLTQSPATLSLSPGERATLSCRASESVDNYGNTFMHWYQQKPGQAPRLLIYRASNLESGIPARFSGSGSRTDFTLTISSLEPEDVAVYYCQQSNEDPPTFGQGTKLEIKGGGGSGGGGSGGGGSGGGGSQIQLVQSGAEVKKPGASVKVSCKASGYIFTNYGMNWVRQAPGQRLEWMGWINTYTGESTYSADFKGRVTITLDTSASTAYMELSSLRSEDTAVYYCARSGGYDPMDYWGQGTTVTVSSGSHHHHHHHHH
B2: CAR7 Soluble scFv (humanized anti-CD123 scFv variant) (scFv)
scFv: QIQLVQSGAEVKKPGASVKVSCKASGYIFTNYGMNWVRQAPGQRLEWMGWINTYTGESTYSADFKGRVTITLDTSASTAYMELSSLRSEDTAVYYCARSGGYDPMDYWGQGTTVTVSSGGGGSGGGGSGGGGSGGGGSDIVLTQSPDSLAVSLGERATINCRASESVDNYGNTFMHWYQQKPGQPPKLLIYRASNLESGVPDRFSGSGSRTDFTLTISSLQAEDVAVYYCQQSNEDPPTFGQGTKLEIKGSHHHHHHHHH
B3: CAR2 Soluble scFv (humanized anti-CD123 scFv variant) (scFv)
scFv: DIVLTQSPDSLAVSLGERATINCRASESVDNYGNTFMHWYQQKPGQPPKLLIYRASNLESGVPDRFSGSGSRTDFTLTISSLQAEDVAVYYCQQSNEDPPTFGQGTKLEIKGGGGSGGGGSGGGGSGGGGSQIQLVQSGAEVKKPGASVKVSCKASGYIFTNYGMNWVRQAPGQRLEWMGWINTYTGESTYSADFKGRVTITLDTSASTAYMELSSLRSEDTAVYYCARSGGYDPMDYWGQGTTVTVSSGSHHHHHHHHH
B4: CAR 3 Soluble scFv (humanized anti-CD123 scFv variant) (scFv)
scFv: EIVLTQSPATLSLSPGERATLSCRASESVDNYGNTFMHWYQQKPGQAPRLLIYRASNLESGIPARFSGSGSRTDFTLTISSLEPEDVAVYYCQQSNEDPPTFGQGTKLEIKGGGGSGGGGSGGGGSGGGGSQIQLVQSGSELKKPGASVKVSCKASGYIFTNYGMNWVRQAPGQGLEWMGWINTYTGESTYSADFKGRFVFSLDTSVSTAYLQINALKAEDTAVYYCARSGGYDPMDYWGQGTTVTVSSGSHHHHHHHHH
B5: CAR8 Soluble scFv (humanized anti-CD123 scFv variant) (scFv)
scFv: QIQLVQSGAEVKKPGASVKVSCKASGYIFTNYGMNWVRQAPGQRLEWMGWINTYTGESTYSADFKGRVTITLDTSASTAYMELSSLRSEDTAVYYCARSGGYDPMDYWGQGTTVTVSSGGGGSGGGGSGGGGSGGGGSEIVLTQSPATLSLSPGERATLSCRASESVDNYGNTFMHWYQQKPGQAPRLLIYRASNLESGIPARFSGSGSRTDFTLTISSLEPEDVAVYYCQQSNEDPPTFGQGTKLEIKGSHHHHHHHHH
B6: CAR5 Soluble scFv (humanized anti-CD123 scFv variant) (scFv)
scFv: QIQLVQSGSELKKPGASVKVSCKASGYIFTNYGMNWVRQAPGQGLEWMGWINTYTGESTYSADFKGRFVFSLDTSVSTAYLQINALKAEDTAVYYCARSGGYDPMDYWGQGTTVTVSSGGGGSGGGGSGGGGSGGGGSDIVLTQSPDSLAVSLGERATINCRASESVDNYGNTFMHWYQQKPGQPPKLLIYRASNLESGVPDRFSGSGSRTDFTLTISSLQAEDVAVYYCQQSNEDPPTFGQGTKLEIKGSHHHHHHHHH
B7: CAR6 Soluble scFv (humanized anti-CD123 scFv variant) (scFv)
scFv: QIQLVQSGSELKKPGASVKVSCKASGYIFTNYGMNWVRQAPGQGLEWMGWINTYTGESTYSADFKGRFVFSLDTSVSTAYLQINALKAEDTAVYYCARSGGYDPMDYWGQGTTVTVSSGGGGSGGGGSGGGGSGGGGSEIVLTQSPATLSLSPGERATLSCRASESVDNYGNTFMHWYQQKPGQAPRLLIYRASNLESGIPARFSGSGSRTDFTLTISSLEPEDVAVYYCQQSNEDPPTFGQGTKLEIKGSHHHHHHHHH
B8: CAR1 Soluble scFv (humanized anti-CD123 scFv variant) (scFv)
scFv: DIVLTQSPDSLAVSLGERATINCRASESVDNYGNTFMHWYQQKPGQPPKLLIYRASNLESGVPDRFSGSGSRTDFTLTISSLQAEDVAVYYCQQSNEDPPTFGQGTKLEIKGGGGSGGGGSGGGGSGGGGSQIQLVQSGSELKKPGASVKVSCKASGYIFTNYGMNWVRQAPGQGLEWMGWINTYTGESTYSADFKGRFVFSLDTSVSTAYLQINALKAEDTAVYYCARSGGYDPMDYWGQGTTVTVSSGSHHHHHHHHH

Biological target: T1, immobilized CD123
Assay: ELISA, soluble His-tagged scFv on immobilized CD123

Row | binding | Binder
1 | binds | B1
2 | binds | B2
3 | binds | B3
4 | binds | B4
5 | binds | B5
6 | binds | B6
7 | binds | B7
8 | binds | B8
